Patent US20180016339A1 (University of Washington, published 2018)
These are yes or no findings as the source states them, for the method shown. Some binding calls cover weakened binding; strength is not graded here.

Experiments:
[1] = biological target: T1, biotinylated recombinant soluble MICB (human) (UniProt Q29980); assay: flow cytometry competition: biotinylated rsMICB on mouse NK cells with various concentrations of p2B10G5
T1 sequence (chain, biotinylated): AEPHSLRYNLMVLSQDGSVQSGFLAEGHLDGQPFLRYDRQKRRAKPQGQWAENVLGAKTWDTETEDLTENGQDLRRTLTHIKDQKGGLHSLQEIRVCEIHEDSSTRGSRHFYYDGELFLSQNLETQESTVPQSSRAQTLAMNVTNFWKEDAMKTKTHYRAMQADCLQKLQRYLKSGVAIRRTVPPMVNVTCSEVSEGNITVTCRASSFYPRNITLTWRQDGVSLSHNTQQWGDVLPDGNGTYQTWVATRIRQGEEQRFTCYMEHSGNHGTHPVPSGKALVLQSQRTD

[2] = biological target: T2, soluble MICB in culture supernatant of TC2-sMICB cells (human) (UniProt Q29980); assay: immunoprecipitation from TC2-sMICB culture supernatant with protein A-beads, immunoblot with goat anti-MICB AF1599
T2 sequence: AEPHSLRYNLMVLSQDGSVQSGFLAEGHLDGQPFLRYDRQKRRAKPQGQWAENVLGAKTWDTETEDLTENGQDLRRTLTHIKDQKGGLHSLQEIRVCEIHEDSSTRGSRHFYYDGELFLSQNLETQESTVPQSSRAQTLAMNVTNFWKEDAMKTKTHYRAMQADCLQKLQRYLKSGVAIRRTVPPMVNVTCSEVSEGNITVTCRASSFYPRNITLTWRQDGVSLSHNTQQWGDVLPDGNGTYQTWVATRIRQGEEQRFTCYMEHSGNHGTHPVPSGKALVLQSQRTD

B1: monoclonal antibody P2B10G5 (antibody, V domains shown)
VH: EVQLEESGPGLVKPSQSLSLTCTVTGYSITSDYAWNWIRQFPGNKLEWMGYISYSGSTNYNPSLKSRISITRDTSKNQFFLQLNSVITEDTATYYCARGGTYFDYWGQGTTLTVSS
VL: DIVLTQTTSYLSVSLGGRVTIACKASAHINNWLAWYQQKPGNAPRLLISDATSLETGVPSRFSGSGSGKDYTLSITSLQTEDVATYYCQHYWSTPWTFGGGTKLEIKR
notes: Mouse hybridoma antibody, IgG1 kappa, raised against recombinant soluble MIC; also called mAb B10G5; anti-sMIC
binding [1]: binds | binding [2]: binds
